Experimental findings from PMC4435044 are described below.

Chains of the proteins cited; added tags and fusions are not shown. Residues count along the entry.
UniProt P62813, residues 28-455: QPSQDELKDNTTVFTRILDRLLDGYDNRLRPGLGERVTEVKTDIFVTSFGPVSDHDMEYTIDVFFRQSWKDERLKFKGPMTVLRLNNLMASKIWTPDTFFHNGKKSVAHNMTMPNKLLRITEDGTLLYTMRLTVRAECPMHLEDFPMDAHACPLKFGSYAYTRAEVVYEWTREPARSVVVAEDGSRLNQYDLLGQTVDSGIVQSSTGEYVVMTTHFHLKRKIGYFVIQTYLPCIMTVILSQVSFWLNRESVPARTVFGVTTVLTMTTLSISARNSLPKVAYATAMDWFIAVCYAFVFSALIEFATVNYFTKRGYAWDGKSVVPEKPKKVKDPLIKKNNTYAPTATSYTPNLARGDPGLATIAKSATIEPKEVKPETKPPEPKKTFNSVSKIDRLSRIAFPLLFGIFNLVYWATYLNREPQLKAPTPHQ
UniProt P15127, residues 764-1383: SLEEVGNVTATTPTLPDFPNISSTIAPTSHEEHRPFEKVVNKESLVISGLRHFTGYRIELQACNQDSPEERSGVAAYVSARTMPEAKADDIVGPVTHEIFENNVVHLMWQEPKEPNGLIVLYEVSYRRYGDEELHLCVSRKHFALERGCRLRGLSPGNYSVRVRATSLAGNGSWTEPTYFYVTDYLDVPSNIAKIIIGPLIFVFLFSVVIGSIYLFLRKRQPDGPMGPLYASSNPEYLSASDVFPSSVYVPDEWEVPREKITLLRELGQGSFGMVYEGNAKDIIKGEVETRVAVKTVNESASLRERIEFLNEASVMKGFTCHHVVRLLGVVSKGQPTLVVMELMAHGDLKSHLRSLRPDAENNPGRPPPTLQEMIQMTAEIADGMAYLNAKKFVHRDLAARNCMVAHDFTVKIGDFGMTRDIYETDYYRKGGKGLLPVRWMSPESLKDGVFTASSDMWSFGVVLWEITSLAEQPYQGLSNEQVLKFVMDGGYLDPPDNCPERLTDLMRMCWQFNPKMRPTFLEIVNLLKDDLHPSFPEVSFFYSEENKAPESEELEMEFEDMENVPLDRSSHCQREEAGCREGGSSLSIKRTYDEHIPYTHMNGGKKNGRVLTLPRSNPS

These are yes or no findings as the source states them, for the method shown. In cells and extracts the contact can be indirect. Some results given as binding are weak or reduced against the parent protein; the word gives no strength.

Assay [1] deals with GABAA receptor α1 subunit (rat (endogenous in primary cerebral cortical neuronal cultures)) (UniProt P62813). As to the kind of experiment: co-IP; 500 μg RIPA lysate of high-density rat cortical neuronal cultures incubated overnight at 4°C with 2 μg anti-α1 subunit or anti-insulin receptor β chain antibody and protein A agarose, nondenaturing; blotted with anti-calnexin; cells treated beforehand at 37°C with vehicle, vigabatrin, valproic acid, NCC 05-2090, baclofen or picrotoxin.

Assay [2] addresses insulin receptor β chain (rat (endogenous in primary cerebral cortical neuronal cultures)) (UniProt P15127). The description is as above.

B1: calnexin (protein, UniProt P35565 21-591)
chain: HDGHDDDMIDIEDDLDDVIEEVEDSKSKSDTSTPPSPKVTYKAPVPTGEVYFADSFDRGSLSGWILSKAKKDDTDDEIAKYDGKWEVDEMKETKLPGDKGLVLMSRAKHHAISAKLNKPFLFDTKPLIVQYEVNFQNGIECGGAYVKLLSKTSELNLDQFHDKTPYTIMFGPDKCGEDYKLHFIFRHKNPKTGVYEEKHAKRPDADLKTYFTDKKTHLYTLILNPDNSFEILVDQSVVNSGNLLNDMTPPVNPSREIEDPEDRKPEDWDERPKIADPDAVKPDDWDEDAPSKIPDEEATKPEGWLDDEPEYIPDPDAEKPEDWDEDMDGEWEAPQIANPKCESAPGCGVWQRPMIDNPNYKGKWKPPMIDNPNYQGIWKPRKIPNPDFFEDLEPFRMTPFSAIGLELWSMTSDIFFDNFIISGDRRVVDDWANDGWGLKKAADGAAEPGVVGQMLEAAEERPWLWVVYILTVALPVFLVILFCCSGKKQSNAMEYKKTDAPQPDVKDEEGKEEEKNKGDEEEEEEKLEEKQKSDAEEDGGTGSQDEEDSKPKAEEDEILNRSPRNRKPRRE
Consider B1, for which the binding result in assay [1] and in assay [2] was “binds” each time.
